Experimental data: US6518302B1, “Remedies” (Takara Shuzo Co., Ltd., priority 1999, dated 2003)
Some results were stated once for a whole list of compounds, not compound by compound.

Columns and labels:
[1] = tested on: NO production in RAW264.7 cells; assay: Inhibition of NO production induction by LPS or LPS and IFN-γ (NO2− by Griess' reagent); type: cell-based; conditions: 12 hours, NO2− in medium
[2] = tested on: HL-60 (ATCC CCL-240) cells; assay: Apoptosis morphology in HL-60 cells under optical microscope; type: cell-based, Human; conditions: 24 hours
Protocol: (§1) HL-60 (ATCC CCL-240) cells were cultured at 37° C. in RPMI 1640 medium (Bio Whittaker) containing 10% fetal calf serum (JRH) which had been treated at 56° C. for 30 minutes and suspended in RPMI 1640 medium at a concentration of 2.5×10^5 cells/4.5 ml. […] each of aqueous solutions of the compound (2) at a concentration of 10, 50 or 100 mM, the compound (7) at a concentration of 500, 1000 or 1500 μM, the compound (9) at a concentration of 750, 1500 or 3000 μM, the compound (11) at a concentration of 750, 1500 or 3000 μM, or the compound (14) at a concentration of 750, 1500 or 3000 μM was added to 4.5 ml of the suspension. The mixtures were incubated at 37° C. for 24 hours in the presence of 5% CO2. The cultured cells were examined under an optical microscope.

[3] = tested on: HL-60 (ATCC CCL-240) cells; assay: Measurement of apoptotic cells using FACScan; type: cell-based, Human; conditions: HL-60 cells, cultured for 24 or 48 hours
Protocol: as §1, with “CO2. Measurement of apoptotic cells using FACScan as described in Saibo Kogaku, Bessatsu (Cell Technology, Suppl.) Jikken Protocol Series: Apoptosis Jikken Protocol (Experimental Protocol Series: Experimental Protocols for Apoptosis) (Shujun-sha) pp. 129-130 and analysis of DNA fragmentation as described in Bio Manual UP Series: […] Apoptosis Jikken-ho (Bio Manual UP Series: Current Experimental Methods for Apoptosis) (Yodo-sha) pp. 61-63 were carried out using cells” for “CO2. The”, “cultured for 24 or 48 hours in the same manner as that described above.” for “cultured cells were examined under an optical microscope.”

[4] = tested on: HL-60 (ATCC CCL-240) cells; assay: Analysis of DNA fragmentation; type: cell-based, Human; conditions: HL-60 cells, 24 hours
Protocol: as §1, with “CO2. Measurement of apoptotic cells using FACScan as described in Saibo Kogaku, Bessatsu (Cell Technology, Suppl.) Jikken Protocol Series: Apoptosis Jikken Protocol (Experimental Protocol Series: Experimental Protocols for Apoptosis) (Shujun-sha) pp. 129-130 and analysis of DNA fragmentation as described in Bio Manual UP Series: […] Apoptosis Jikken-ho (Bio Manual UP Series: Current Experimental Methods for Apoptosis) (Yodo-sha) pp. 61-63 were carried out using cells” for “CO2. The”, “cultured for 24 or 48 hours in the same manner as that described above.” for “cultured cells were examined under an optical microscope.”

| SMILES | final concentration that inhibited NO production induction by LPS or LPS and IFN-γ [1] [µM] | final concentration at which condensation of nuclei, shrinking of cells and formation of apoptotic bodies were observed [2] [µM] | final concentration at which apoptotic cells were observed [3] [µM] | final concentration at which DNA fragmentation was observed [4] [µM] |
| --- | --- | --- | --- | --- |
| O=C[C@H](O)[C@H]1OC[C@@H](O)[C@@H]1O [Compound (2), 3,6-anhydro-D-galactose, reference compound] | ≥ 25 | – | – | – |
| O=C[C@H](O)[C@H]1OC[C@@H](O)[C@@H]1OC(=O)c1ccccc1 [Compound (7), 4-O-benzoyl-3,6-anhydro-D-galactose] | ≥ 25 | – | – | – |
| CC(=O)OCC1OC(OC2C(O)COC2C(O)C(O)O)C(OC(C)=O)C(OC(C)=O)C1OC(C)=O [Compound (9), 4-O-(β-D-2,3,4,6-tetra-O-acetylgalactopyranosyl)-3,6-anhydro-D-galactose] | ≥ 50 | ≥ 150 | ≥ 150 | ≥ 150 |
| OCC1OC(OC2C(CO)OC(OC3C(CO)OC(OC4C(O)COC4C(O)C(O)O)C(O)C3O)C(O)C2O)C(O)C(O)C1O [Compound (14), 4-O-β-maltotoriosyl-3,6-anhydro-D-galactose] | ≥ 25 | ≥ 150 | ≥ 150 | – |
| O=C[C@H](O)[C@H]1OC[C@@H](O)[C@@H]1OCc1ccccc1 [Compound (17), 4-O-benzyl-3,6-anhydro-D-galactose] | ≥ 50 | – | – | – |
